Measurements: paper PMC9278407, “Structure and regulation of the nuclear exosome targeting complex guides RNA substrates to the exosome” (Molecular Cell, 2022)
No constants are given. Whether binding was seen depends on the method and setting. For some of these results: In cells and extracts the contact can be indirect. Some binding calls cover weakened binding; strength is not graded here. For some of these results: Sequences can lack the tags named with a protein.

T1: MYC-tagged ZCCHC8^1-707 (human) (UniProt Q6NZY4)
T1 sequence: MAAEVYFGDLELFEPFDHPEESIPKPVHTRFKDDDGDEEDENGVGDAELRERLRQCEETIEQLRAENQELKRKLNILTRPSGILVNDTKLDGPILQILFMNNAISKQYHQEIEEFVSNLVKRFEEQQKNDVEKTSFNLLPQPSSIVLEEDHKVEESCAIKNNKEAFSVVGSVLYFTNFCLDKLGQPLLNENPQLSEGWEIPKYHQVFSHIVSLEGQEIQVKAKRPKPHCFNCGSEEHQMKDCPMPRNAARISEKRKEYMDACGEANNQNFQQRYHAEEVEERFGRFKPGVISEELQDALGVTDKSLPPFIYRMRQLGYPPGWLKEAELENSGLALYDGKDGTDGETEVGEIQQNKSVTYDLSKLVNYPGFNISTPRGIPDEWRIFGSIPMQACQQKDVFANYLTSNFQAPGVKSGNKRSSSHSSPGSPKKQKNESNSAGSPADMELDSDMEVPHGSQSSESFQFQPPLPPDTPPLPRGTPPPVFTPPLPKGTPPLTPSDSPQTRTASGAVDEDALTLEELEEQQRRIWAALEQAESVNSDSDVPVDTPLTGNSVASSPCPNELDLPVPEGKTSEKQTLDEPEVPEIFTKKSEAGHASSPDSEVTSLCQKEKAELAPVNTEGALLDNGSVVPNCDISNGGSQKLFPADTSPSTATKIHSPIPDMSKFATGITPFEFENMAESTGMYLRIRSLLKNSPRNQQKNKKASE

T2: MYC-tagged ZCCHC8^177-707 (human) (UniProt Q6NZY4)
T2 sequence: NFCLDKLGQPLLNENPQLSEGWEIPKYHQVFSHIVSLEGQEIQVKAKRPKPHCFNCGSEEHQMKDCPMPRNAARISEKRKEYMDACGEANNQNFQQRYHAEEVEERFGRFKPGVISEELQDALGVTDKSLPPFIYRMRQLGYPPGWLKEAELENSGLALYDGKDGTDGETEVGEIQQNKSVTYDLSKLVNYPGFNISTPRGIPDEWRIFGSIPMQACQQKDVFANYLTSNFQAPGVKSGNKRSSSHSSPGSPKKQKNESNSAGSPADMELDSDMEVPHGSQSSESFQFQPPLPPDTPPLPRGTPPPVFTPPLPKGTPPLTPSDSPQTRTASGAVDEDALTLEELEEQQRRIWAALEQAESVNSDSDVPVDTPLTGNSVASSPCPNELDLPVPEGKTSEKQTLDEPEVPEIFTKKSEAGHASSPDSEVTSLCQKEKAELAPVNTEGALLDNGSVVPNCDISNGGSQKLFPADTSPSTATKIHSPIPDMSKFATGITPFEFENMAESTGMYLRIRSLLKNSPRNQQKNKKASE


Assays:
[1] = molecular target: T1, MYC-tagged ZCCHC8^1-707 (human); test: co-IP; MYC antibody with Protein G Dynabeads from whole cell extract of HeLa:TIR1 ZCCHC8-3F-mAID cells, HT150 buffer (20 mM HEPES pH 7.4, 150 mM NaCl, 0.5% Triton X-100); cells mock treated or treated with auxin (IAA); western blot
[2] = molecular target: T2, MYC-tagged ZCCHC8^177-707 (human); test: as above
[3] = molecular target: ZCCHC8 (residues 177-337) (human) (UniProt Q6NZY4); test: SEC; pre-assembled complexes of full-length MTR4, RBM7(RRM) and N-terminally truncated ZCCHC8 constructs ending at 337; Superdex 200 Increase 3.2/300; 20 mM Hepes-NaOH pH 7.5, 150 mM NaCl, 2 mM DTT; 300 pmol in 30 μL injected; peak fractions on SDS-PAGE; both purified
[4] = molecular target: ZCCHC8 (residues 177-337) (human) (UniProt Q6NZY4); test: SEC; ZCCHC8 constructs with RBM7 present and MTR4 absent (Figure S3A); both purified

Binder | binding [1] | binding [2] | binding [3] | binding [4]
endogenous ZCCHC8-3F-mAID (protein, UniProt Q6NZY4 1-707) MAAEVYFGDLELFEPFDHPEESIPKPVHTRFKDDDGDEEDENGVGDAELRERLRQCEETIEQLRAENQELKRKLNILTRPSGILVNDTKLDGPILQILFMNNAISKQYHQEIEEFVSNLVKRFEEQQKNDVEKTSFNLLPQPSSIVLEEDHKVEESCAIKNNKEAFSVVGSVLYFTNFCLDKLGQPLLNENPQLSEGWEIPKYHQVFSHIVSLEGQEIQVKAKRPKPHCFNCGSEEHQMKDCPMPRNAARISEKRKEYMDACGEANNQNFQQRYHAEEVEERFGRFKPGVISEELQDALGVTDKSLPPFIYRMRQLGYPPGWLKEAELENSGLALYDGKDGTDGETEVGEIQQNKSVTYDLSKLVNYPGFNISTPRGIPDEWRIFGSIPMQACQQKDVFANYLTSNFQAPGVKSGNKRSSSHSSPGSPKKQKNESNSAGSPADMELDSDMEVPHGSQSSESFQFQPPLPPDTPPLPRGTPPPVFTPPLPKGTPPLTPSDSPQTRTASGAVDEDALTLEELEEQQRRIWAALEQAESVNSDSDVPVDTPLTGNSVASSPCPNELDLPVPEGKTSEKQTLDEPEVPEIFTKKSEAGHASSPDSEVTSLCQKEKAELAPVNTEGALLDNGSVVPNCDISNGGSQKLFPADTSPSTATKIHSPIPDMSKFATGITPFEFENMAESTGMYLRIRSLLKNSPRNQQKNKKASE | binds | no binding |  | 
ZCCHC8 (residues 177-337) (domain or fragment, human, UniProt Q6NZY4 177-337, looked up, source: E. coli BL21 Star (DE3) pRARE, co-expressed and co-purified with RBM7(1-98); not shown: His6, N-terminal, cleaved; GST, N-terminal, cleaved) NFCLDKLGQPLLNENPQLSEGWEIPKYHQVFSHIVSLEGQEIQVKAKRPKPHCFNCGSEEHQMKDCPMPRNAARISEKRKEYMDACGEANNQNFQQRYHAEEVEERFGRFKPGVISEELQDALGVTDKSLPPFIYRMRQLGYPPGWLKEAELENSGLALYD |  |  | no binding (tested: 30 μL containing 300 pmol injected) | no binding
